Measurements: US11866437B1, “1,2-dioxo-2,3-dihydro-1H-pyrrolo[2,3-c]quinoline-7-carboxylic acid compounds as CK2 inhibitors” (KING FAISAL UNIVERSITY, priority 2023, dated 2024)
pIC50: −log10 of the molar value.

Experiments:
Assay type in all cases: cell-based
PC3 (prostate) = assay: In vitro cytotoxic activity MTT assay, PC3; conditions: Homo sapiens, PC-3; PC3 cells, exposed for 96 hours; read-out: IC50, 50% inhibition of cell proliferation, PC3 (prostate)
Description: (§1) Compounds 1-16 were screened for their in vitro cytotoxic activity utilizing a 3-(4,5-dimethyl-thiazol-2-yl)-2,5-diphenyltetrazolium bromide (MTT) assay against selected cancer human cell lines consisting of PC3 (prostate), HCT116 (colon), A375 (melanoma), H1299 (lung), MIAPaCa-2 (pancreas), HL60 (leukemia), MCF7 (breast), MDA-MB-231 (breast) (T. Mosmann, J. Immunol. Meth., 1983, 65, 55-63). The cells were cultured at 37° C. in RMPI1640 medium supplemented with 10% fetal bovine serum, 50 IU/mL penicillin, and 50 μg/mL streptomycin in a 5% CO2 incubator. All cells were sub-cultured 3 times/week by trypsinisation. Viable cells were seeded and allowed to adhere for 12 h before a test drug was added in 96-well plates at an initial density of 1.0×10^5 cells/mL. Tumour cell lines were separately exposed to various concentrations of the tested compounds followed by incubation at a temperature of 37° C. during 96 h inside a medium of fresh RMPI 1640. Cells were subsequently incubated at 37° C. using MTT at 0.5 mg/mL during 4 h. After removal of supernatant, formazan crystals were dissolved in isopropanol and the optical density was measured at 570 nm. CX-4945 was used as a positive control.

HCT116 (colon) = assay: In vitro cytotoxic activity MTT assay, HCT116; conditions: Homo sapiens, HCT-116; HCT116 cells, exposed for 96 hours; read-out: IC50, 50% inhibition of cell proliferation, HCT116 (colon)
Description: as §1

H1299 (lung) = assay: In vitro cytotoxic activity MTT assay, H1299; conditions: Homo sapiens, NCI-H1299; H1299 cells, exposed for 96 hours; read-out: IC50, 50% inhibition of cell proliferation, H1299 (lung)
Description: as §1

A375 (melanoma) = assay: In vitro cytotoxic activity MTT assay, A375; conditions: Homo sapiens, A-375; A375 cells, exposed for 96 hours; read-out: IC50, 50% inhibition of cell proliferation, A375 (melanoma)
Description: as §1

MCF7 (breast) = assay: In vitro cytotoxic activity MTT assay, MCF7; conditions: Homo sapiens; MCF7 cells, exposed for 96 hours; read-out: IC50, 50% inhibition of cell proliferation, MCF7 (breast)
Description: as §1

MIAPaCa-2 (pancreas) = assay: In vitro cytotoxic activity MTT assay, MIAPaCa-2; conditions: Homo sapiens, MIA PaCa-2; MIAPaCa-2 cells, exposed for 96 hours; read-out: IC50, 50% inhibition of cell proliferation, MIAPaCa-2 (pancreas)
Description: as §1

HL60 (leukemia) = assay: In vitro cytotoxic activity MTT assay, HL60; conditions: Homo sapiens, HL-60; HL60 cells, exposed for 96 hours; read-out: IC50, 50% inhibition of cell proliferation, HL60 (leukemia)
Description: as §1

MDA-MB-231 (breast) = assay: In vitro cytotoxic activity MTT assay, MDA-MB-231; conditions: Homo sapiens; MDA-MB-231 cells, exposed for 96 hours; read-out: IC50, 50% inhibition of cell proliferation, MDA-MB-231 (breast)
Description: as §1

`O=C(O)c1ccc2c(c1)nc(Nc1cccc(Cl)c1)c1ccncc12` [CX-4945, reference compound] was tested, and the pIC50 (PC3 (prostate)) was 5.70, the pIC50 (HCT116 (colon)) was 5.64 and the pIC50 (H1299 (lung)) was 5.64. For the same compound, the pIC50 (A375 (melanoma)) was 5.39, the pIC50 (MCF7 (breast)) was 5.04 and the pIC50 (MIAPaCa-2 (pancreas)) was 6.00. It also gave a pIC50 (HL60 (leukemia)) of 5.43 and a pIC50 (MDA-MB-231 (breast)) of 5.21.
